Results published in PMC8639842.

Target: T1, protein tyrosine phosphatase receptor type C (PTPRC, CD45) (mouse (endogenous in P14 CD8+ T cells)) (UniProt P06800)
T1 sequence: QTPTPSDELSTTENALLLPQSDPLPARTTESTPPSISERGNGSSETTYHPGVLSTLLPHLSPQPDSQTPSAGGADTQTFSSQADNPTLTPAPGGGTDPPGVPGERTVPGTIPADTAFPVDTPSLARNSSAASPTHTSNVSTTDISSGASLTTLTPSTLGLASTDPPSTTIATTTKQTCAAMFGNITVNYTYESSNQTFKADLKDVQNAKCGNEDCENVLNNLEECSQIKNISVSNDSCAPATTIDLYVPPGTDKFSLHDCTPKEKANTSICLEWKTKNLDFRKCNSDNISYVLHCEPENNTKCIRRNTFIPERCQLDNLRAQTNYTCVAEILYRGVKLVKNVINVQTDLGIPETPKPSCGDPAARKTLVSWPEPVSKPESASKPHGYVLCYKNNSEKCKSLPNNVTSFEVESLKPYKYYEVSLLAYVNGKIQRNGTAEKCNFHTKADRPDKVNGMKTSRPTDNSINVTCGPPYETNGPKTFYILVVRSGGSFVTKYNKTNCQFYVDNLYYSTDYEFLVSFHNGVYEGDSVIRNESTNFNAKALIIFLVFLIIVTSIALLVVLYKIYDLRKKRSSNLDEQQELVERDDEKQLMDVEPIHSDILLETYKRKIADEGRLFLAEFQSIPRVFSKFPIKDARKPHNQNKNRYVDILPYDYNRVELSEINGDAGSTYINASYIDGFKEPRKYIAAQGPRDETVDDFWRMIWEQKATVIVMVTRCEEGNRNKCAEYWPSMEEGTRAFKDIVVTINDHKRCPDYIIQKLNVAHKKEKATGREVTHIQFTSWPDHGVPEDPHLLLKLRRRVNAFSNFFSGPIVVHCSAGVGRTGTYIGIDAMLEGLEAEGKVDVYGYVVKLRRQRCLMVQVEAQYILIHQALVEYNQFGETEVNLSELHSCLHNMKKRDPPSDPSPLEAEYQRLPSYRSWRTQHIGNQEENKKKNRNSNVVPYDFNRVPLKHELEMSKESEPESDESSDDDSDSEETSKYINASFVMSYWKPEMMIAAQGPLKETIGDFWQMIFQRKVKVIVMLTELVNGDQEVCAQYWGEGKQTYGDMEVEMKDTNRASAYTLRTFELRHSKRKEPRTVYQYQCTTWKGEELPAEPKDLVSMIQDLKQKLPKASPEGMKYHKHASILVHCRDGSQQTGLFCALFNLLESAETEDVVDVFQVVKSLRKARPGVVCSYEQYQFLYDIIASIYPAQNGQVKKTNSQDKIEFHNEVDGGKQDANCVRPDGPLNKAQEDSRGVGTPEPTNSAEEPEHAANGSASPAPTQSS
Assay: proximity labelling; only the binder purified

B1: gp33-SOG2 (LCMV peptide gp33-41 carrying two thiorhodamine SOG) (peptide)
peptide: KAVYNFATM
With B1 the binding was “no binding”.

Results are given in words; binding and its absence hold for the method and conditions named. Binding seen in cells or lysates may run through a third protein. These calls come from enrichment with a bait or labelling near it, and not all partners need be listed. No binding means not detected with the bait.
